Cleaved PARP in drug-treated melanoma cells

Drugs:
BI-78D3, 1 µM: O=c1[nH]nc(Sc2ncc([N+](=O)[O-])s2)n1-c1ccc2c(c1)OCCO2
SU6656, 2 µM: CN(C)S(=O)(=O)c1ccc2c(c1)/C(=C/c1cc3c([nH]1)CCCC3)C(=O)N2
everolimus, 0.1 µM: CO[C@H]1C[C@@H]2CC[C@@H](C)[C@@](O)(O2)C(=O)C(=O)N2CCCC[C@H]2C(=O)O[C@H]([C@H](C)C[C@@H]2CC[C@@H](OCCO)[C@H](OC)C2)CC(=O)[C@H](C)/C=C(\C)[C@@H](O)[C@@H](OC)C(=O)[C@H](C)C[C@H](C)/C=C/C=C/C=C/1C
temozolomide, 10 µM: Cn1nnc2c(C(N)=O)ncn2c1=O

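Human melanoma cell lines in 1,536-well plates were treated with two drugs together for 72 h, then fixed, stained and imaged. Values are the share of nuclei positive for cleaved PARP as a percentage of the same share in the DMSO control: 100 is the control level, higher means more apoptosis. Every drug was used at one fixed concentration, the higher of two screened. The file gives one value for each pair and line, without errors, so small differences may be noise. Basal and induced levels differ widely between cell lines.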
This is part of the screen, not chosen by result.
A dash means that no value is listed here.

Cell line	SU6656 + BI-78D3	temozolomide + BI-78D3	everolimus + BI-78D3	everolimus + temozolomide	SU6656 + temozolomide	everolimus + SU6656
A101D	356	68.6	104	64.9	125	51.2
WM115	390	116	207	420	752	252
WM1745	162	95.9	139	128	122	104
SK-MEL-2	61.8	94.6	162	108	6.4	52.6
LB2518-MEL	135	402	186	259	175	-
IST-MEL1	230	234	271	24.5	166	242
COLO 829	49.5	233	124	182	207	151
SK-MEL-30	55.1	256	141	89.6	90.9	106
MZ2-MEL	399	118	316	78.2	101	-
WM3526	79.3	118	291	208	164	234
LOX IMVI	320	94.2	209	249	131	303
UACC-62	115	60.1	374	586	92.0	171
A375	-	191	86.1	78.5	-	-
RVH-421	134	148	174	143	200	115
SK-MEL-28	174	261	86.5	726	112	76.6
A2058	185	491	126	222	294	94.5
COLO 792	61.0	190	189	261	73.2	351
SK-MEL-5	75.5	290	300	250	46.1	56.6
MEL-HO	82.0	64.4	63.9	124	83.2	169
G-361	119	99.8	117	224	113	176
WM1716	121	613	109	384	35.0	65.6
C32	113	149	296	640	206	186
COLO 800	283	158	120	244	147	119
WM3619	121	156	167	149	113	106
UACC-257	81.8	162	38.4	72.8	43.4	36.7
IPC-298	50.3	149	174	151	144	115
RPMI-7951	257	55.3	228	97.2	111	176
WM451Lu	150	88.2	117	100	50.5	124
MeWo	167	146	103	92.3	118	118

Once more, the final 2:

Cell line	SU6656 + BI-78D3	temozolomide + BI-78D3	everolimus + BI-78D3	everolimus + temozolomide	SU6656 + temozolomide	everolimus + SU6656
WM451Lu	150	88.2	117	100	50.5	124
MeWo	167	146	103	92.3	118	118

Data from the primary screen of doi:10.1371/journal.pone.0140310, rounded.